Laboratory results reported in paper PMC5231407.
These are yes or no findings as the source states them, for the method shown. In cells and extracts the contact can be indirect. A result given as binding can be weak or reduced; the word gives no strength.

Chains of the proteins cited; added tags and fusions are not shown. Lines headed by an entry give the natural chain unless they say otherwise; changes in a name come on top.
UniProt Q3KK31: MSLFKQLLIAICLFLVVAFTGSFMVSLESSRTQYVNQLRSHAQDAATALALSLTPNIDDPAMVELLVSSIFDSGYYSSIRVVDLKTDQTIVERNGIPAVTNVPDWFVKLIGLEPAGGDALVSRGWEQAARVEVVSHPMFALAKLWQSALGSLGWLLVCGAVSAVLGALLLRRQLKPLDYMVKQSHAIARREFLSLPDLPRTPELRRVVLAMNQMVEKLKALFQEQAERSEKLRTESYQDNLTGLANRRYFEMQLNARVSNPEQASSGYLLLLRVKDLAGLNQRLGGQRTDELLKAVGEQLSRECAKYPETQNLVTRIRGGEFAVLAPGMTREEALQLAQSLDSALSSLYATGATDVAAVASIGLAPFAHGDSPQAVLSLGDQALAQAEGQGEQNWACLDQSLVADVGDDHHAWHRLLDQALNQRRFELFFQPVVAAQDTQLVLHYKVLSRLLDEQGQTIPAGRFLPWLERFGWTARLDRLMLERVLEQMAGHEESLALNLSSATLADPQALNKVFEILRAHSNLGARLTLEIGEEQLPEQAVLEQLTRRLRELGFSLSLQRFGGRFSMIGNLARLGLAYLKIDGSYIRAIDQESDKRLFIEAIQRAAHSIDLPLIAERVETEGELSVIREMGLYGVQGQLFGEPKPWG

Assays:
[1] = target: LapD^TMcys-A602C–sfGFP (Pseudomonas fluorescens Pf0-1) (UniProt Q3KK31); assay: cross-linking; disulfide crosslinking with Cu(Phen)2 of mixed LapD–sfGFP and non-fluorescent LapD variants, detergent-solubilized (~1 μM), after incubation with c-di-GMP and LapG; SDS-PAGE, in-gel fluorescence
[2] = target: LapD^TMcys-A602C–sfGFP (Pseudomonas fluorescens Pf0-1) (UniProt Q3KK31); assay: cross-linking; disulfide crosslinking with Cu(Phen)2 in fused E. coli membrane fractions (0.05% Triton X-100, sonication, washed) from cells separately expressing LapD–sfGFP and non-fluorescent LapD; 50 μM LapG and 100 μM c-di-GMP

binding [1]	binding [2]	Substance
binds	binds	LapD^TMcys-A602C lacking sfGFP (non-fluorescent) (from UniProt Q3KK31) (receptor)
binds	–	LapD^TMcys lacking sfGFP (non-fluorescent; C304A, C397S) (from UniProt Q3KK31) (receptor)
